In publication PMC3670919:
These are yes or no findings as the source states them, for the method shown. In cells and extracts the contact can be indirect. Some entries that bind do so weakly or less than the wild type. Sequences can lack the tags named with a protein.

By UniProt entry, the sequences of proteins in these tests, tags left out.
UniProt Q9BQA1: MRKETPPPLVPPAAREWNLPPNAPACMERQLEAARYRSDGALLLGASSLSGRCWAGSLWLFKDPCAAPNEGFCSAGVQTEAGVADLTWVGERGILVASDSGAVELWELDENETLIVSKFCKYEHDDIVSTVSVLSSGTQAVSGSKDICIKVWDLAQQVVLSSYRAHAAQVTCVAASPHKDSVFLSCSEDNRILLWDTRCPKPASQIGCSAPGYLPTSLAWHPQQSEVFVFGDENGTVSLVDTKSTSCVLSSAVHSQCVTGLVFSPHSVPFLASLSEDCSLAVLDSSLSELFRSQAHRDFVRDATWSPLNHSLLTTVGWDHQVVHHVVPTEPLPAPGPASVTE

Biological target: T1, FLAG-tagged PKG-Iβ (pcDNA-f:PKG-Iβ) (UniProt Q13976)
T1 sequence: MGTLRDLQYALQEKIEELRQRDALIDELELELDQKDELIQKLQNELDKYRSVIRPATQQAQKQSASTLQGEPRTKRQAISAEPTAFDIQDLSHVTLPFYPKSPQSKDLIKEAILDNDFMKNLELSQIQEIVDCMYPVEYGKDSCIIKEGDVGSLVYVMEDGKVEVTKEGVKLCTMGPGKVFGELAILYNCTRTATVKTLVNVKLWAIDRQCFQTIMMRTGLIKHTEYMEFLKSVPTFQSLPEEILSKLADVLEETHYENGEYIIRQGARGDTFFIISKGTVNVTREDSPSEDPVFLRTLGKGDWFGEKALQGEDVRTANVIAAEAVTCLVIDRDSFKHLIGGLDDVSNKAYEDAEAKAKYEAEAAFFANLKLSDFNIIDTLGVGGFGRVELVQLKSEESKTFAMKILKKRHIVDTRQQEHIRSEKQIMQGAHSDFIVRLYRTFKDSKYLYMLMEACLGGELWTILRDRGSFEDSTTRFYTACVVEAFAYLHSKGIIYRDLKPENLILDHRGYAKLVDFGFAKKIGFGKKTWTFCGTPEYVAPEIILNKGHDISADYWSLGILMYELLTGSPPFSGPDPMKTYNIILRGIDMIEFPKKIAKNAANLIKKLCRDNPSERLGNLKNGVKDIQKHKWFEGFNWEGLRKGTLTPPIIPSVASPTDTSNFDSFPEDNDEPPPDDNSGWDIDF
Assay: co-IP; whole-cell extracts of LNCaP cells transfected with pcDNA-f:PKG-Iβ; anti-p44 antibody on Protein A Sepharose or anti-FLAG M2 agarose; washes with 100 mM KCl, 0.1% NP-40; Western blot with anti-PKG or anti-p44

For “p44/WDR77, endogenous in LNCaP cells (from UniProt Q9BQA1 1-342)”, the binding was “binds”.
